PubChem BioAssay AID504648 (National Center for Advancing Translational Sciences (NCATS), 2011)
The campaign covered roughly 390,000 compounds. About 610 (0.16%) were called active. This list was built around the results that the source calls inconclusive (neither active nor inactive); the mix of calls is not that of the screen. The call rests on the fitted dose curve; in most records, active means well fitted inhibition curve with a large enough effect; inconclusive means small, poorly fitted or top-dose-only effect, or effect the other way, or another doubt; inactive means no such curve, though single readings can be large or run the other way. Potencies of inconclusive entries are doubtful fits and often do not repeat.

Experiment: Nrf2 qHTS screen for inhibitors: counterscreen for cytotoxicity
Conditions: A549 ARE-Fluc cells, CellTiter-Fluor viability, 18-24 h; activity change, negative = cytotoxicity: at 46 µM (top of the series)
Procedure, shortened: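 A549 ARE-Fluc cells in 5% FBS OPTI-MEM, 5000 cells/well, rested 2 h then exposed to compounds in concentration-response for 18-24 h at 37 °C. Viability by CellTiter-Fluor fluorescence (Ex 405/Em 525) after 30 min; luciferase luminescence (BugLite, 15 min, RT) read afterwards.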
On the % scale 0 is the no-effect control and ±100 the full control effect; potency means the concentration at half of the fitted maximal effect.

| Compound | Potency | activity change, negative = cytotoxicity |
| --- | --- | --- |
| Cc1c(N=Cc2cccs2)c(=O)n(-c2ccccc2)n1C | inconclusive: 1.46 µM [activator, partial curve, poor fit] |  |
| COC(=O)Nc1ccc(S(=O)(=O)N2CCCC(C(=O)N3CCCCC3)C2)cc1 (stereo not drawn) |  | inactive: -11.4% |
| O=S(=O)(Nc1ccc(N=Nc2ccc(O)c3ccccc23)cc1)c1ccccc1 | inconclusive: 18.4 µM [falling, single point] |  |
| Cc1cccc2cc(COC(=O)COc3ccccc3)c(=O)[nH]c12 |  | inactive: 0.366% |
| CC1C/C(=C/c2ccncc2)C(=O)/C(=C/c2ccncc2)C1 (stereo not drawn) | inconclusive: 8.2 µM [falling, partial curve, poor fit] |  |
| Oc1ccc(/C=N/N2CCN(c3ccccn3)CC2)cc1 | inconclusive: 1.84 µM [activator, full curve, poor fit] |  |
| CCn1c(SCc2cccc(F)c2)nnc1-c1ccncc1 |  | inactive: 0.0673% |
| O=[N+]([O-])c1cc(C(F)(F)F)ccc1NCCCCNS(=O)(=O)c1ccc2ccccc2c1 | inconclusive: 29.1 µM [falling, single point] |  |
| O=C(NC(NC(=S)Nc1c(Cl)cccc1Cl)C(Cl)(Cl)Cl)OCc1ccccc1 (stereo not drawn) | inconclusive: 29.1 µM [falling, partial curve, poor fit] |  |
| Cn1cnc([N+](=O)[O-])c1Oc1ccccc1 |  | inactive: -21% |
| CCCCN(C(=O)c1ccc(-c2ccc(Cl)cc2)o1)c1c(N)n(CCCC)c(=O)[nH]c1=O | inconclusive: 16.4 µM [falling, single point] |  |
| Cc1ccc(C(=O)N2CCCC(C(=O)c3ccc(Oc4ccccc4)cc3)C2)cn1 (stereo not drawn) | inconclusive: 20.6 µM [falling, partial curve, poor fit] |  |
| CCN(CC)C(=S)SCC(=O)Nc1ccc(S(N)(=O)=O)cc1 | inconclusive: 25.9 µM [falling, partial curve, poor fit] |  |
| O=C(NC(C(=O)N/N=C/c1cccc2ccccc12)c1n[nH]c(=O)c2ccccc12)c1ccccc1 (stereo not drawn) | inconclusive: 29.1 µM [falling, single point] |  |
| Cn1c(=O)c2c(nc(NCc3ccc4c(c3)OCO4)n2Cc2ccccc2)n(C)c1=O | inconclusive: 29.1 µM [falling, single point] |  |
| Cc1c(C(=O)OC2CCCC2)[nH]c2c1C(=O)CC(c1ccco1)C2 (stereo not drawn) |  | inactive: -1.2% |
| O=C(NC(c1ccc(Cl)cc1)c1c(O)ccc2ccccc12)c1ccccc1 (stereo not drawn) | inconclusive: 25.9 µM [falling, partial curve, poor fit] |  |
| Cc1ccc(C(=O)CSC2=C(C#N)C(c3ccco3)C3=C(CCCC3=O)N2)cc1 (stereo not drawn) | inconclusive: 8.2 µM [falling, single point] |  |
| O=C(NC1CCCC1)c1cccc2c1C(=O)c1ccc(N3CCCCC3)cc1S2(=O)=O | inconclusive: 29.1 µM [falling, single point] |  |
| CCOC(=O)c1ccccc1NC(=O)CSc1ccc(-c2ccccn2)nn1 | inconclusive: 23.1 µM [falling, partial curve, poor fit] |  |
| COCCNC(=O)Cc1c(C)c2c(cc(C)c3c(C(C)(C)C)coc32)oc1=O | inconclusive: 9.2 µM [falling, partial curve, poor fit] |  |
| Cc1ccc(Nc2cc(C)nc3ccc(C)cc23)cc1 | inconclusive: 2.91 µM [falling, partial curve, poor fit] |  |
| Fc1ccc(-c2csc3ncnc(N4CCN(Cc5ccccc5)CC4)c23)cc1 |  | inactive: -5.89% |

| Compound | Potency | activity change, negative = cytotoxicity |
| --- | --- | --- |
| COc1ccccc1NC(=O)C(Cc1ccccc1)NS(=O)(=O)c1ccc2c(c1)c(=O)n(C)c(=O)n2C (stereo not drawn) |  | inactive: 11.5% |
| CC1=CC(C)(C)Nc2ccc(C)cc21 |  | inactive: -7.99% [at 1.84 µM] |
| O=C(Nc1ccccc1)c1ccc(Br)c(S(=O)(=O)N2CCCCC2)c1 |  | inactive: -1.39% |
| COc1ccc(NC(=O)COc2ccc(S(=O)(=O)NC3CCCCC3)cc2)cc1OC |  | inactive: -1.11% |
| COc1ccc(C(=O)N/N=C/c2ccc3cccc(OCc4ccccc4)c3n2)cc1 | inconclusive: 20.6 µM [falling, partial curve, poor fit] |  |
| Cc1cc(O)c2c(c1O)C(=O)[C@]13C(=C2O)C(=O)[C@@H]2[C@@H](O)[C@H]1[C@@H]1[C@H](O)[C@H]3C(=O)C3=C(O)c4c(O)cc(C)c(O)c4C(=O)[C@]312 | inconclusive: 4.11 µM [falling, partial curve] |  |
| Cc1cc(/C=C2\SC(=S)NC2=O)c(C)[nH]1 | inconclusive: 20.6 µM [falling, single point] |  |
| CCOC(=O)c1c(-c2cccs2)csc1NC(=O)CN(CC)CC | inconclusive: 29.1 µM [falling, single point] |  |
| CC(=O)Oc1c(/C=C(\C#N)C(N)=O)[nH]c2ccccc12 |  | inactive: -9.3% |
| Cc1noc(C)c1CSc1nc2ccccc2c(=O)n1-c1ccccc1 | inconclusive: 10.3 µM [falling, partial curve, poor fit] |  |
| c1ccc(CCNCc2cccs2)nc1 | inconclusive: 7.31 µM [falling, partial curve, poor fit] |  |
| O=C(/C=C/c1cn(CC(O)CN2CCCCC2)c2ccccc12)c1cccs1 (stereo not drawn) | inconclusive: 1.16 µM [activator, partial curve, poor fit] |  |
| Cc1ccc(NC(=O)CN2C(=O)C3(SCC(=O)N3c3cccc(Cl)c3)c3ccccc32)cc1C (stereo not drawn) | inconclusive: 18.4 µM [falling, partial curve, poor fit] |  |
| COCCCn1c(C(=O)NCCN2CCOCC2)cc2c(=O)n3ccccc3nc21 | inconclusive: 29.1 µM [activator, single point] |  |
| Cc1[nH]c(=O)[nH]c(=O)c1S(=O)(=O)N1CCCC1 |  | inactive: 7.64% |
| CCc1noc(-c2ccc(N3CCCCC3C)c([N+](=O)[O-])c2)n1 (stereo not drawn) |  | inactive: -2.2% |
| COCCCNC(=O)c1c[nH]c2ccc(S(=O)(=O)N3CCC4(CC3)OCCO4)cc2c1=O |  | inactive: -1.41% |
| O=C(N/N=C/c1cn(-c2ccccc2)nc1-c1ccccc1)c1ccco1 | inconclusive: 14.6 µM [falling, partial curve, poor fit] |  |
| COc1nc(Nc2ccc(O)cc2)nc(OC(C(F)(F)F)C(F)(F)F)n1 |  | inactive: -25% |
| O=C(/C=C/c1ccccc1)CC(O)(c1ccccc1)C(F)(F)F (stereo not drawn) | inconclusive: 29.1 µM [falling, single point] |  |
| CCOc1ccc(N(CC(=O)NCCOc2ccc(C)cc2)S(=O)(=O)c2ccccc2)cc1 | inconclusive: 6.51 µM [falling, single point] |  |
| Cc1ccc(CS(=O)(=O)c2ncc(Cl)c(C(=O)Nc3nc4ccc(F)cc4s3)n2)cc1 | inconclusive: 29.1 µM [falling, single point] |  |
| O=C(NC(=S)NNC(=O)c1ccccc1[N+](=O)[O-])c1ccc(Br)cc1 |  | inactive: -9.03% |

16 of these compounds in another layout.
Compound | Potency | activity change, negative = cytotoxicity
COc1ccccc1NC(=O)C(Cc1ccccc1)NS(=O)(=O)c1ccc2c(c1)c(=O)n(C)c(=O)n2C (stereo not drawn) |  | inactive: 11.5%
CC1=CC(C)(C)Nc2ccc(C)cc21 |  | inactive: -7.99% [at 1.84 µM]
O=C(Nc1ccccc1)c1ccc(Br)c(S(=O)(=O)N2CCCCC2)c1 |  | inactive: -1.39%
COc1ccc(C(=O)N/N=C/c2ccc3cccc(OCc4ccccc4)c3n2)cc1 | inconclusive: 20.6 µM [falling, partial curve, poor fit] | 
Cc1cc(O)c2c(c1O)C(=O)[C@]13C(=C2O)C(=O)[C@@H]2[C@@H](O)[C@H]1[C@@H]1[C@H](O)[C@H]3C(=O)C3=C(O)c4c(O)cc(C)c(O)c4C(=O)[C@]312 | inconclusive: 4.11 µM [falling, partial curve] | 
CCOC(=O)c1c(-c2cccs2)csc1NC(=O)CN(CC)CC | inconclusive: 29.1 µM [falling, single point] | 
CC(=O)Oc1c(/C=C(\C#N)C(N)=O)[nH]c2ccccc12 |  | inactive: -9.3%
c1ccc(CCNCc2cccs2)nc1 | inconclusive: 7.31 µM [falling, partial curve, poor fit] | 
O=C(/C=C/c1cn(CC(O)CN2CCCCC2)c2ccccc12)c1cccs1 (stereo not drawn) | inconclusive: 1.16 µM [activator, partial curve, poor fit] | 
Cc1[nH]c(=O)[nH]c(=O)c1S(=O)(=O)N1CCCC1 |  | inactive: 7.64%
CCc1noc(-c2ccc(N3CCCCC3C)c([N+](=O)[O-])c2)n1 (stereo not drawn) |  | inactive: -2.2%
COCCCNC(=O)c1c[nH]c2ccc(S(=O)(=O)N3CCC4(CC3)OCCO4)cc2c1=O |  | inactive: -1.41%
O=C(N/N=C/c1cn(-c2ccccc2)nc1-c1ccccc1)c1ccco1 | inconclusive: 14.6 µM [falling, partial curve, poor fit] | 
COc1nc(Nc2ccc(O)cc2)nc(OC(C(F)(F)F)C(F)(F)F)n1 |  | inactive: -25%
O=C(/C=C/c1ccccc1)CC(O)(c1ccccc1)C(F)(F)F (stereo not drawn) | inconclusive: 29.1 µM [falling, single point] | 
Cc1ccc(CS(=O)(=O)c2ncc(Cl)c(C(=O)Nc3nc4ccc(F)cc4s3)n2)cc1 | inconclusive: 29.1 µM [falling, single point] | 

The list continues.

| Compound | Potency | activity change, negative = cytotoxicity |
| --- | --- | --- |
| Cc1cc(N)ccc1N=Nc1c(C)n(C)n(-c2ccccc2)c1=O | inconclusive: 18.4 µM [falling, single point] |  |
| CC(CCN1C(Nc2ccccc2)=NC[C@@H]1Cc1ccccc1)c1ccccc1 (stereo partly drawn) | inconclusive: 32.6 µM [falling, partial curve, poor fit] |  |
| CCN1CCN(S(=O)(=O)c2ccc(Cl)c(C(=O)N(CC)CC(=O)Nc3ccc(OC)cc3)c2)CC1 |  | inactive: -1.32% |
| O=c1[nH]c(O)c(/C=C2\C=Nc3ccc(Br)cc32)[nH]1 |  | inactive: -5.73% |
| C[C@]12C(=O)N(c3ccc(C(F)(F)F)cc3)C(=O)N1[C@H]1c3ccccc3OC[C@@H]1[C@H]2c1ccccc1 | inconclusive: 25.9 µM [activator, partial curve, poor fit] |  |
| C=Cc1ccc(Cn2c(C(=O)O)c(CNCc3ccccc3)c3ccc(C)cc32)cc1 | active: 16.4 µM |  |
| COc1ccc(NC(=O)c2ccccc2NC(=O)CSc2ccc(Cl)cc2)cc1 | inconclusive: 14.6 µM [falling, single point] |  |
| O=C(C1CCCN(S(=O)(=O)c2ccc(Br)s2)C1)N1CCN(c2ccccc2)CC1 (stereo not drawn) | inactive |  |
| CNC(=O)C1CCC(Cn2c(=O)c3sccc3n(CC(=O)NCc3ccc(F)cc3)c2=O)CC1 (stereo not drawn) |  | inactive: -0.587% |
| CCOc1ccc(S(=O)(=O)N2CCC(C(=O)N3CCCCCC3)CC2)cc1C |  | inactive: -0.102% |
| O=C(Nc1cccc(NC(=O)c2cccnc2)c1)c1cccnc1 |  | inactive: -7.68% |
| Cc1[nH]n(-c2ccccc2)c(=O)c1N=Nc1cccc(Cl)c1 |  | inactive: -6.36% |
| CCCn1c(=N)n(CC(=O)c2ccc(Cl)cc2)c2ccccc21 | inconclusive: 29.1 µM [falling, single point] |  |
| COC(=O)c1c(C)oc2ccc(N(C(=O)c3ccncc3)S(=O)(=O)c3ccc(C)cc3)cc12 | inconclusive: 8.2 µM [falling, partial curve, poor fit] |  |
| CC(C(=O)Nc1ccccc1Br)c1ccc([N+](=O)[O-])cc1 (stereo not drawn) | inconclusive: 6.51 µM [activator, partial curve, poor fit] |  |
| N#Cc1cc([N+](=O)[O-])ccc1NC(=O)COC(=O)C1CC2CCCC(C1)C2=O (stereo not drawn) |  | inactive: 0.594% |
| S=c1[nH]nc(Cn2nnc3ccccc32)n1-c1ccc(Cl)cc1 | inconclusive: 25.9 µM [activator, partial curve] |  |
| Cn1cccc1/C=C1\SC(=Nc2ccc(O)cc2)NC1=O |  | inactive: -26% |
| Nc1[nH]n2c(=O)c3c(nc2c1N=Nc1ccccc1)CCCC3 | active: 13 µM |  |
| Cc1ccc(Nc2nc(Cl)nc(NC3CCCCC3)n2)cc1 | inconclusive: 32.6 µM [falling, partial curve, poor fit] |  |
| Cc1cccc(NC(=O)C2CCN(S(=O)(=O)c3ccc4ccccc4c3)CC2)n1 |  | inactive: -13.5% |
| Cc1cc(C)c2c(=N)c3ccccc3n(CCCCCCCCn3c4ccccc4c(=N)c4c(C)cc(C)nc43)c2n1 | inconclusive: 18.4 µM [falling, single point] |  |
